From paper PMC4738300, “Physiological lipid composition is vital for homotypic ER membrane fusion mediated by the dynamin-related GTPase Sey1p” (Scientific Reports, 2016)
These are yes or no findings as the source states them, for the method shown. Tags and fused reporters may be left off the sequences shown.

Target: Sey1p (tagged full-length recombinant Sey1p: GST-His6-3C-Sey1p and His6-3C-Sey1p) (S. cerevisiae) (UniProt Q99287)
Test: condition: only with 1 mM ATP or without any nucleotide (no GTP); pull-down; as a1, but with 1 mM ATP or without any nucleotide in place of GTP; both purified

B1: Sey1p (tagged full-length recombinant Sey1p: GST-His6-3C-Sey1p and His6-3C-Sey1p) (natural protein, S. cerevisiae, UniProt Q99287 1-776, looked up)
chain: MADRPAIQLIDEEKEFHQSALQYFQQCIGNRDVGLDYHVISVFGSQSSGKSTLLNVLFNTNFDTMDAQVKRQQTTKGIWLAHTKQVNTTIEIDNDRPDIFVLDVEGSDGSERGEDQDFERKAALFAIAVSEVLIVNMWEQQIGLYQGNNMALLKTVFEVNLSLFGKNDNDHKVLLLFVIRDHVGVTPLSSLSDSVTRELEKIWTELSKPAGCEGSSLYDYFDLKFVGLAHKLLQEDKFTQDVKKLGDSFVMKGTENYYFKPQYHHRLPLDGWTMYAENCWDQIERNKDLDLPTQQILVARFKTEEISNEALEEFISKYDESIAPLKGNLGSLTSQLVKLKEECLTKYDEQASRYARNVYMEKREALNTKLNSHISGTINEFLESLMEKLWDDLKLEVSSRDKATTSFVESVAAGKSKIEKEFNESMETFKKLGLLISNEEITCKFSDDIEERIKQLRDAELKAKIGRIKKNLVPELKDHVIHLLSHPSKKVWDDIMNDFESTIKDNISAYQVEKDKYDFKIGLSESENAKIYKNIRILAWRTLDTTVHDYLKIDTIVSILRDRFEDVFRYDAEGSPRLWKTEEEIDGAFRVAKEHALEVFEVLSLAVTSDNVEIIPDVPMAEEESGEDNEIYRDNEGVFHSRRFAHILTELQKENVLDQFRRQINITVLDSKRSIITTRTHIPPWIYVLLAVLGWNEFVAVIRNPLFVTLTLILGATFFVIHKFGLWGPVVNVVQSAVGETRTAIKDKLRQFVVEDHEVKESFEMKDFSKNEQKEK
notes: The bait copy is GST-His6-3C-Sey1p (pET-41 Ek/LIC) and the prey copy is His6-3C-Sey1p (pET-30 Ek/LIC); GST is on the bait copy only; The tags were not cleaved in the pull-down; also called GST-Sey1p; His6-Sey1p; source: E. coli Rosetta 2(DE3)pLysS, purified (COSMOGEL His-Accept beads, imidazole elution, dialysis; in 0.4% Triton X-100); not shown: His6, N-terminal, kept; GST, N-terminal, kept
- binding: no binding
